{"sequences": {"note": "The chains behind the UniProt entries cited, without tags or fusion partners.", "UniProt P04637, whole entry, looked up": "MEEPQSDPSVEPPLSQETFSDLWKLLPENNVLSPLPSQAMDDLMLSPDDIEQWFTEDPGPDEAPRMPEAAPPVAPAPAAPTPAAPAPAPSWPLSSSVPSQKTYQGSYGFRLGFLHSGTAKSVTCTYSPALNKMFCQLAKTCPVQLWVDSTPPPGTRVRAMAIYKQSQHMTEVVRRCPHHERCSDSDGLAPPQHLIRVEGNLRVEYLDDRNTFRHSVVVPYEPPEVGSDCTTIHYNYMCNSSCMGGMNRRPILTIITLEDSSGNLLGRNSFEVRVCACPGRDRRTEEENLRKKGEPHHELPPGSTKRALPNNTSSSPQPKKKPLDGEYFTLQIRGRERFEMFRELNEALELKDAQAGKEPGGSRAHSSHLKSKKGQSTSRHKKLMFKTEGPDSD"}, "source": "PubChem BioAssay (EPA / NIEHS)", "note": "Inconclusive means that the source gave no clear call. Such entries were picked first, then a sample of the others. Potencies of inconclusive entries are doubtful fits and often do not repeat. Active and inactive are the calls of the source. How the source made its calls: active means hit-call score of the fitted dose curve at least 0.9, where 1 is the maximum; inconclusive means response in the unintended direction; inactive means score below 0.9."}
{"target": "Cellular tumor antigen p53 (Homo sapiens) (UniProt P04637)", "experiment": "TOX21_p53_BLA_p4_ratio: Tox21 HCT-116 p53 Agonism Beta-lactamase Assay, Ratio, Phase 4 (AID 2283601)", "outline": "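Signal is the blue/green (460nm/530nm) ratio of cleaved versus uncleaved CCF4-AM substrate, read after 2 h substrate loading. Cells were HCT116 carrying the p53-responsive beta-lactamase reporter, dosed 16 h at 37C, 5% CO2; CellTiter-Glo measured in parallel.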"}
{"smiles": "CCNc1nc(NC(C)C)nc(OC)n1", "AC50": "inconclusive: 84 µM"}
{"smiles": "Cc1cnc[nH]1", "outcome": "inactive"}
{"smiles": "CCC1(c2ccccc2)CCC(=O)NC1=O", "note": "(stereo unspecified)", "AC50": "inconclusive: 23 µM"}
{"smiles": "CCCCc1ccc(C(=O)O)nc1", "AC50": "inconclusive: 23 µM"}
{"smiles": "CCCCCCC#N", "outcome": "inactive"}
{"smiles": "CCCN(CCCl)c1c([N+](=O)[O-])cc(C(F)(F)F)cc1[N+](=O)[O-]", "AC50": "inconclusive: 46.1 µM"}
{"smiles": "Cn1cc[n+](C)c1", "note": "(tested in a mixture with another compound)", "AC50": "inconclusive: 46.3 µM"}
{"smiles": "Cc1ccccc1-n1c(C)nc2ccccc2c1=O", "AC50": "inconclusive: 45.7 µM"}
{"smiles": "O=C(Cl)c1ccccc1F", "AC50": "inconclusive: 45.6 µM"}
{"smiles": "CC(=O)OCC1=C(C(=O)O)N2C(=O)[C@@H](N)[C@H]2SC1", "AC50": "inconclusive: 10.3 µM"}
